Laboratory results from paper PMC8008952.
Read-outs that look alike come from different tables or passages of the source. No constants are given. Whether binding was seen depends on the method and setting. Binding seen in cells or lysates may run through a third protein. Here binding means that the protein was enriched with, or labelled near, the bait; the list need not be complete. Blank lines part the entries; values can stand above or below the molecule they belong to.

Chains of the proteins cited; added tags and fusions are not shown.
UniProt Q9QY76: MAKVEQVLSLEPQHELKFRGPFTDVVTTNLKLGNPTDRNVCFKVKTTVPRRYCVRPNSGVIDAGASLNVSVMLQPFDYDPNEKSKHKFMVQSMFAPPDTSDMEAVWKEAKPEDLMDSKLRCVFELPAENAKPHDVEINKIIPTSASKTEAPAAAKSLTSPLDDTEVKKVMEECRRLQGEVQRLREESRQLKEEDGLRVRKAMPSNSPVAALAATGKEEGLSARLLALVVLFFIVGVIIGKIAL
UniProt P18608: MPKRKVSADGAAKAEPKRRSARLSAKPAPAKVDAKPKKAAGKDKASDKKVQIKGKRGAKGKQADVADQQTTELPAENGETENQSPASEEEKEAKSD
UniProt Q3U9G9: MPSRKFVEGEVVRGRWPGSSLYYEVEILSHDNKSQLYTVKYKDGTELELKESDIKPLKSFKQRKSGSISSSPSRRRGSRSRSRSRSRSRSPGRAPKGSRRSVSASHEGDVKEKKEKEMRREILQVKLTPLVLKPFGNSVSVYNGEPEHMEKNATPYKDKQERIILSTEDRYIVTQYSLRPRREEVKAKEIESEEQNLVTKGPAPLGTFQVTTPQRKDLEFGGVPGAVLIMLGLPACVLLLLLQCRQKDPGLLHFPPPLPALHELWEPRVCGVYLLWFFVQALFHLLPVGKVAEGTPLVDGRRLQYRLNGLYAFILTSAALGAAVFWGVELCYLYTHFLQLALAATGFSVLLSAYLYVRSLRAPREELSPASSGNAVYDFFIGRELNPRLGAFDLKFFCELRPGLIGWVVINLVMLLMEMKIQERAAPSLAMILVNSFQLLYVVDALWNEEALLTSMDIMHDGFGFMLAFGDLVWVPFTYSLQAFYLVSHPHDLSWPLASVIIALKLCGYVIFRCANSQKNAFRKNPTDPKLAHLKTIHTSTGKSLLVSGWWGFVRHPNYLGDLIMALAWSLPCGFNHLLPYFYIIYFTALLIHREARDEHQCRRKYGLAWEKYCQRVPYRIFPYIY

Assays:
[1] = biological target: T1, BirA*-Lap2β (lamina-associated polypeptide β with BirA* on its nucleoplasmic N terminus) (mouse (cDNA from MEFs)) (UniProt Q61029); experiment: proximity labelling; BioID with BioSITe: cells expressing BirA*-Lap2β cultured overnight with 50 μM biotin, crude nuclear extraction, tryptic digest, biotinylated peptides captured with anti-biotin antibody, LC-MS/MS; proteins enriched >2-fold over BirA*-m6A-tracer alone (control) taken as LAP2β proximity/interaction
T1 sequence: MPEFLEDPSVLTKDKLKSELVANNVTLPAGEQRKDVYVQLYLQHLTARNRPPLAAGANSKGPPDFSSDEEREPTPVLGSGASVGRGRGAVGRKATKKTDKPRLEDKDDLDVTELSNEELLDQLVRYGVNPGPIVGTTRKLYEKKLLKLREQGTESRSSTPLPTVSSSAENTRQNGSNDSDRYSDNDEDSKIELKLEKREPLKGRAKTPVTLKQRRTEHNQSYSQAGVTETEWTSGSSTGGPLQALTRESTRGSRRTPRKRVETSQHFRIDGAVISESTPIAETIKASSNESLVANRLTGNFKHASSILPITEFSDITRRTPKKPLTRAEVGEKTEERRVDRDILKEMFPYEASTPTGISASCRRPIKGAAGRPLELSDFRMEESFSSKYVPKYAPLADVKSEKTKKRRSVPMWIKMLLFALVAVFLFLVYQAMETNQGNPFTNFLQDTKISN

[2] = biological target: T1, BirA*-Lap2β (lamina-associated polypeptide β with BirA* on its nucleoplasmic N terminus) (mouse (cDNA from MEFs)); experiment: as above; remark: listed apart in the source

binding [1]: binds
Molecule: vesicle-associated membrane protein-associated protein B (VAPB) (from UniProt Q9QY76 1-243)

binding [1]: binds
Molecule: HMGN1 (from UniProt P18608 1-96)

binding [1]: binds
Molecule: Lamin B receptor (LBR) (from UniProt Q3U9G9 1-626)

binding [2]: binds
B1: transmembrane protein 214 (TMEM214) (protein, UniProt Q8BM55 1-687)
chain: MAARSAGSGGWEVVKRGRRPGASSGGRGGGGGSDRRALGEANGVLKYDLSSPIQTTSTLYERGFEKIMKRQNKEQVPPPAAESKKPINKKQPKKVTAVPSQNQKQGPFRRLEDALKALDVAALQKELDKSQSVFTGNPSVWLKDLASYLNYKLQTPRMEPTLSQYPHDYPYSLVSRELRGIIRGLLTKAAGSVELFFDHCLFTMLQELDKTPGESLHGYRICIQAVLQDKPKIVTSNLDKFLELLRSHQSRPAKCLTIMWALGQAGFTNLTEGLKVWLGIMLPVLGIKALSPFAIAYLDRLLLMHPNLTKGFGMIGPKDFFPLLDFAYMPNNSLSPSLQEQLCQLFPRLKVLAFGAKPESSLHTYFPSFLSRATPSCPAAMKKELLASLTQCLTVDPLSTSVWRQLYPKHLSQSSLLLEHLLKSWEHIPKKARKSLQETIQSLKVTNQELLKKGSGGSEHVLTCDTACKGLLQRARGPRPPWARLFLLLLVFAVGFLCHDLRSNSSLQASLTGRLLRSSGLLPVGQQVCARLSSYSLQSYNWLQETLPACGSHLLAVVQPSLQLAWTHIYAIFSFLSAHCASYLACFSDSLAGFFQRVQLPEALQQLFHALKELLLLFCHSVLLPTWHLLLAALAQVQEHCHEACRGDVTWDCIKTQLSRAAQWTWLCLQDVTVAFLDWALTMISQQ

binding [2]: binds
B2: SUN domain-containing protein 1 (SUN1) (protein, UniProt Q9D666 1-913)
chain: MDFSRLHTYTPPQCVPENTGYTYALSSSYSSDALDFETEHKLEPVFDSPRMSRRSLRLVTTASYSSGDSQAIDSHISTSRATPAKGRETRTVKQRRSASKPAFSINHLSGKGLSSSTSHDSSCSLRSATVLRHPVLDESLIREQTKVDHFWGLDDDGDLKGGNKAATQGNGELAAEVASSNGYTCRDCRMLSARTDALTAHSAIHGTTSRVYSRDRTLKPRGVSFYLDRTLWLAKSTSSSFASFIVQLFQVVLMKLNFETYKLKGYESRAYESQSYETKSHESEAHLGHCGRMTAGELSRVDGESLCDDCKGKKHLEIHTATHSQLPQPHRVAGAMGRLCIYTGDLLVQALRRTRAAGWSVAEAVWSVLWLAVSAPGKAASGTFWWLGSGWYQFVTLISWLNVFLLTRCLRNICKVFVLLLPLLLLLGAGVSLWGQGNFFSLLPVLNWTAMQPTQRVDDSKGMHRPGPLPPSPPPKVDHKASQWPQESDMGQKVASLSAQCHNHDERLAELTVLLQKLQIRVDQVDDGREGLSLWVKNVVGQHLQEMGTIEPPDAKTDFMTFHHDHEVRLSNLEDVLRKLTEKSEAIQKELEETKLKAGSRDEEQPLLDRVQHLELELNLLKSQLSDWQHLKTSCEQAGARIQETVQLMFSEDQQGGSLEWLLEKLSSRFVSKDELQVLLHDLELKLLQNITHHITVTGQAPTSEAIVSAVNQAGISGITEAQAHIIVNNALKLYSQDKTGMVDFALESGGGSILSTRCSETYETKTALLSLFGVPLWYFSQSPRVVIQPDIYPGNCWAFKGSQGYLVVRLSMKIYPTTFTMEHIPKTLSPTGNISSAPKDFAVYGLETEYQEEGQPLGRFTYDQEGDSLQMFHTLERPDQAFQIVELRVLSNWGHPEYTCLYRFRVHGEPIQ

binding [2]: binds
B3: Lamin B1 (protein, UniProt P14733 1-588)
chain: MATATPVQQQRAGSRASAPATPLSPTRLSRLQEKEELRELNDRLAVYIDKVRSLETENSALQLQVTEREEVRGRELTGLKALYETELADARRALDDTARERAKLQIELGKFKAEHDQLLLNYAKKESDLSGAQIKLREYEAALNSKDAALATALGDKKSLEGDLEDLKDQIAQLEASLSAAKKQLADETLLKVDLENRCQSLTEDLEFRKNMYEEEINETRRKHETRLVEVDSGRQIEYEYKLAQALHEMREQHDAQVRLYKEELEQTYHAKLENARLSSEMNTSTVNSAREELMESRMRIESLSSQLSNLQKESRACLERIQELEDMLAKERDNSRRMLSDREREMAEIRDQMQQQLSDYEQLLDVKLALDMEISAYRKLLEGEEERLKLSPSPSSRVTVSRASSSRSVRTTRGKRKRVDVEESEASSSVSISHSASATGNVCIEEIDVDGKFIRLKNTSEQDQPMGGWEMIRKIGDTSVSYKYTSRYVLKAGQTVTVWAANAGVTASPPTDLIWKNQNSWGTGEDVKVILKNSQGEEVAQRSTVFKTTIPEEEEEEEEEPIGVAVEEERFHQQGAPRASNKSCAIM

binding [2]: binds
B4: nucleoporin NDC1 (NDC1) (protein, UniProt Q8VCB1 1-673)
chain: MATAASGPCAGGSPRDILWRVLGWRIVTSIVWSVVLLPVCITAFIVLSSINLFHPIQWLSDSCNDFYSSQVIFHLLLLAVVIIIISIFNVEFYTVVPSISGSRLALIARILHPQQLTHSFIHAAMGMAVAWCAAIMTKGQYSSLVVPCTGTESLDSPAAQTCLNEYHLFFLLSGAFMGYSYSLLYFINNMNYLPFPIIQQYKFLRFRRSLLLLVKHSCVESLFMVRNFCIVYYFFGHIPKAWISTALDLHTDEQAHRPLDTIGGLLNVSLLYHVWLCGVFLLVTWYSSWILFKIYATEAHVFPVQPPFAEASDECLPKVLNSNPPRIVKYLALQDLMLLSQYSPSRRQEVFSLSQPGGHPHNWTAISRECLNLLNDMTQKLVLYQEAAATNGRMYSSYSVEPKKLSSAEETAFQTPKPSQTPSVPPLVKTSLFSPKLSTPNVSSPFGTPFGSSVVNRMAGILDVNPFSGSPQSPQLIRRGPRLWTHTSDQQVSAISNPSPCASVTAEGKTVRQPSVIYSWIQNKREQIKNFLSKRVLIMYFFSKHPEASIQAVFSDAQMHIWALEGLSHLVAASFTEDRFGVVQTTLPAILHTLLTLQEAVDKYFKLPHASSKPPRASGSLVDTSYKTLRFAFRASLKTAIYRITTTFGEHLNAVQASAEHQKRLQQFLEFKE

binding [2]: binds
B5: SUN domain-containing protein 2 (SUN2) (protein, UniProt Q8BJS4 1-731)
chain: MSRRSQRLTRYSQDDNDGGSSSSGASSVAGSQGTVFKDSPLRTLKRKSSNMKHLSPAPQLGPSSDSHTSYYSESVVRESYIGSPRAVSLARSALLDDHLHSEPYWSGDLRGRRRRGTGGSESSKANGLTAESKASEDFFGSSSGYSSEDDLAGYTDSDQHSSGSRLRSAASRAGSFVWTLVTFPGRLFGLLYWWIGTTWYRLTTAASLLDVFVLTRSRHFSLNLKSFLWFLLLLLLLTGLTYGAWHFYPLGLQTLQPAVVSWWAAKESRKQPEVWESRDASQHFQAEQRVLSRVHSLERRLEALAADFSSNWQKEAIRLERLELRQGAAGHGGGSSLSHEDALSLLEGLVSRREATLKEDLRRDTVAHIQEELATLRAEHHQDSEDLFKKIVQASQESEARVQQLKTEWKSMTQEAFQESSVKELGRLEAQLASLRQELAALTLKQNSVADEVGLLPQKIQAARADVESQFPDWIRQFLLGDRGARSGLLQRDEMHAQLQELENKILTKMAEMQGKSAREAAASLGQILQKEGIVGVTEEQVHRIVKQALQRYSEDRIGMVDYALESGGASVISTRCSETYETKTALLSLFGIPLWYHSQSPRVILQPDVHPGNCWAFQGPQGFAVVRLSARIRPTAVTLEHVPKALSPNSTISSAPKDFAIFGFDEDLQQEGTLLGTFAYDQDGEPIQTFYFQASKMATYQVVELRILTNWGHPEYTCIYRFRVHGEPAH

binding [2]: binds
B6: LEM-domain containing protein 3 (MAN1) (protein, UniProt Q9WU40 1-921)
chain: MAAATAAAAPQQLSDEELFSQLRRYGLSPGPVTESTRPVYLKKLKKLREEEQQQQQQQQQQQHRAGGRGNKTRNSNNNNTATAMGGRPGSGDLAYLRSPAGLGRLSASAAESPVAGGSGGAAAVPAAGSKVLLGFSSDESDVEASPREQAGGGGGGGARRDRAALQYRGLRAPPAPPAAGEVTGGHPGERRKPHSWWGARRPAGPEPQPPAAGSDGAAEDADEELADGEDRDPEAEEPLWASRAVNGSRLLPYSSCREHYSDSEEEEEEGEEDGDVAPARQVLKDDSLARHRPRRSHSKPFSALTAKSGGSRQETSVQGGGALAMNDRAAAAGSLDRSRNLEEAAAEPGGGGGGGCGCDPVDSIPRYRAGAKKLAPLLSPPSPDGDSTLESPTGPLLKTNNHIGGGAFGVDSPGLYANSLPPGATAAAAPGTLRINHANHTGSNHTYLKTAYGKPKLCEPEEELLQQFKREEVSPTGSFSAHYLSMFLLTAACLFFLILGLTYLGMRGTGVPEDGGLIKNPFDETFGKIQESEKNLLMSTLYKLHDRLAQIAGDHECGSSSQRMLSVQEAAAYLKNLGPEYEDVFNTSLLWIFKNGKDVGIRCVGYGPEEDLTNITDVQFLQSTRPQMPFWCRFRRAFITVTHRLLLLCLGVVLVCVALRYMRYRWTKEEEETRQMYDMVVKIIDVLRSHNEACQETKDLQPYMPLPHVRDSLIQPQDRKKMKKVWDRAVDFLAANESRVRTETRRVGGADFLVWRWIQPSASCDKTLVIPSKVWQGQAFHLDRRNSPPNSLTPCLKIRNMFDPVMEIGDHWHLAIQEAILEKCSDNDGIVHIAVDRNSREGCVYVKCLSPEYAGKAFKALHGSWFDGKLVTVKYLRLDRYHHRFPQALTCNTPLKPANKHMNSLSHLRLRTGLANSQGSS

binding [2]: binds
B7: Lamin B2 (protein, UniProt P21619 1-596)
chain: MASLPPHAGPATPLSPTRLSRLQEKEELRELNDRLAHYIDRVRALELENDRLLLRISEKEEVTTREVSGIKTLYESELADARRVLDETARERARLQIEIGKVQAELEEARKSAKKREGELTVAQGRVKDLESLFHRSEAELATALSDKQGLETEVAELRAQLAKAEDGHAVAKKQLEKETLMRVDLENRCQSLQEELAFSKSVFEEEVRETRRRHERRLVEVDSSRQQEYDFKMAQALEDLRSQHDEQVRLYRVELEQTYQAKLDNAKLLSDQNDKAAHAAREELKEARMRVESLSYQLLGLQKQASAAENHIHELEEALAGERDKFRKMLDAKEQEMTEVRDAMQQQLAEYQELLDIKLALDMEISAYRKLLEGEEERLKLSPSPSSRITISRATSSSSSSSGVGMSVGQGRGKRRRLETEDTSGSPSRASRVSSGSRLAQQTVATGVVNIDEVDPEGRFVRLKNSSDKDQSLGNWRIKRQVLEGEDIAYKFTPKYVLRAGQTVTVWAAGAGATHSPPSTLVWKSQTNWGPGESFRTALVSADGEEVAVKAAKHSSVQGRENGEEEEEEEAEFGEEDLFHQQGDPRTTSRGCRLM
